Test results published in the supplement of paper PMC3334620.
In all, about 33,000 sequences were measured (“E-score (-0.5 to 0.5)”: median about -0.015, highest 2% from about 0.3 on). The list shows a part of the results.

These sequences were tested against T1, Abf1 (UniProt P14164) (assay: PBM E-score (8-mer binding enrichment) (E-score (-0.5 to 0.5)); higher = stronger / more preferred TF binding). Settings: protein concentration: 200 nM; construct: GST-full length.
T1 sequence: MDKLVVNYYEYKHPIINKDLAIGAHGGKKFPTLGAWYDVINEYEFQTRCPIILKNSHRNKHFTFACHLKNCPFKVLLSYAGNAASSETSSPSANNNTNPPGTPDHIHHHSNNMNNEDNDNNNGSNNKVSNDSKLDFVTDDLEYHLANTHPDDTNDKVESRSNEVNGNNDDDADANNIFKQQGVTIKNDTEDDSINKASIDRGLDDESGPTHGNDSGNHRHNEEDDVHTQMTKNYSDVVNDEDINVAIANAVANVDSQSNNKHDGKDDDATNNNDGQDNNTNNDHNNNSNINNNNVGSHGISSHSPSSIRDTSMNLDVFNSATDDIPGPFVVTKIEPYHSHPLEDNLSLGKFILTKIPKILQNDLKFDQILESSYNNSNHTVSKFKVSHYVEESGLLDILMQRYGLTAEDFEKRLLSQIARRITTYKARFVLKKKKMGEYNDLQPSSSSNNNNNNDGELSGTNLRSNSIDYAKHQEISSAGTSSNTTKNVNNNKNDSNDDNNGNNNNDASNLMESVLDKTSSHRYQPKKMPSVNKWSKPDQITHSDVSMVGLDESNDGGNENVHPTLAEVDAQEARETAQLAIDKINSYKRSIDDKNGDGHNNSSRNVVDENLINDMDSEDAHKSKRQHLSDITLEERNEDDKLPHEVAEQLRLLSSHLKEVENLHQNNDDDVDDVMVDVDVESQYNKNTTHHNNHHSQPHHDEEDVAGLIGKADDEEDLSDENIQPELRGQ
Experimental: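 Universal 'all 10-mer' protein binding microarrays (Agilent AMADID 015681) probed with GST-tagged S. cerevisiae TFs (full-length or DBD) made by in vitro transcription/translation (PURExpress), about 100-200 nM. Bound TF was detected with fluorescent anti-GST. Each ungapped 8-mer (which stands for itself and its reverse complement) is scored by the PBM enrichment score (E-score), a modified Wilcoxon-Mann-Whitney statistic from -0.5 to +0.5, computed with the Universal PBM Analysis Suite. Scale: above 0.35 generally sequence-specific binding.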

Sequence | PBM E-score
GCTAAATA | 0.121
CTATCTTA | -0.149
CTCAACAG | -0.0447
ATGGTGCG | -0.162
ACGGCCCT | 0.181
CTAAGCTC | -0.00188
CACTTAAG | 0.0851
GAGTTTGC | -0.0954
GCACGCCC | -0.109
GCCCATGA | 0.0491
GGTCCTCA | -0.0235
AATCATGT | 0.176
AGTCACCA | 0.093
ATGCCTTA | 0.0557
ATATTTGA | 0.122
ACATAACA | 0.102
AGGTGACA | 0.362
AATGGCAG | 0.00485
CCCGTCTA | 0.15
ACAGACCG | 0.00191
ACACATCA | 0.094
CGATTAAC | 0.0233
CATTACCG | 0.0587
GAGGGGAC | -0.202
ATTGTGCG | -0.143

Sequence | PBM E-score
ACAGAGCG | 0.056
ACTTAAGT | 0.0656
ACTGTCTC | -0.0997
TCTGGACA | -0.123
CATGAGTA | 0.00626
AGGATTCG | 0.0455
AGCTTCGA | -0.0686
TCATACGA | 0.328
CTTTCATC | 0.0704
GAGCTGAC | -0.103
CGCGGCCC | -0.0569
ACATGTGG | 0.0141
AAGTTGGA | 0.0871
GCCTTAAA | 0.0571
CTTTAGCA | -0.159
CGGAAGAC | 0.0364
CCATGAGG | -0.117
GCAGAAAA | 0.0404
ACCCATGG | -0.209
CGATATTA | 0.326
CACTATTA | 0.137
CATCAGAC | -0.02
ACGCCCAT | 0.0437
CGTTAGGA | 0.152
CGGTTTAA | -0.067

Sequence | PBM E-score
AGCTCCCA | -0.296
GTAGAGAA | 0.073
ATTACTGC | 0.173
CACGGTCC | 0.0625
CCACTTCA | -0.0253
AACATCTA | -0.122
CCAGAATA | 0.0527
AAAAACTC | 0.00953
CCAACTAA | -0.171
ACCGTGCA | 0.315
GATTCTGC | 0.11
GTGGTAAA | 0.0486
CAGATTCA | -0.198
ACCCTTCC | -0.279
ATCCCGAT | -0.0964
GCTAATTA | 0.0883
ATTGAAAA | 0.226
ACTTCGGC | -0.107
GCGATCGA | 0.184
ATCAAACG | 0.145
CACTATGA | -0.138
ACTATAAT | 0.139
CCCAACAC | -0.136
CCACAAAA | -0.0076
ACGTTGCG | -0.0312

Sequence | PBM E-score
AGGAAATC | 0.083
AAATCATC | 0.278
GCCATAGC | -0.055
CCTGTAAC | -0.0278
AAAAATGT | 0.184
AGACTCTG | -0.0615
CCAAGCAA | -0.178
CACGTGCC | 0.0511
CTGTTTCC | -0.0696
AGTTAGAG | -0.111
AAGTAGCT | -0.179
GTTGTATA | 0.0125
AAGAGGCA | -0.126
AATGATCC | 0.0166
AGAACAAG | 0.0197
ACGTGTGC | 0.1
AAAGTCGG | -0.0861
AGAATTGA | -0.159
GTTAGTGA | 0.17
AACGCCGA | 0.0805
CTGCGACC | -0.212
AGCAGTGG | -0.135
AGGTCTGA | -0.0227
TTATCCAA | 0.216
GACGGAAC | 0.289

Given with each value named: entries from further up.
CACGTGCC
  PBM E-score = 0.0511
CTGTTTCC
  PBM E-score = -0.0696
GTTGTATA
  PBM E-score = 0.0125
AGCAGTGG
  PBM E-score = -0.135

Following part.

Sequence | PBM E-score
GACAGCGC | -0.0192
AGAAAAAT | 0.0843
ACTCGAGG | -0.0906
CCTTGCCG | -0.203
AGCGGAAC | -0.0991
CTAGCTTA | 0.00624
GGACAATA | 0.113
ATAGCGGA | -0.0437
AACTTATG | -0.116
CGTAATTC | 0.0957
CACCCAAC | -0.151
ATTGCGTC | -0.0859
ACTCTACT | -0.0262
ACGACGAA | 0.373
AGAGAAGA | 0.0299
CCCCCAGA | -0.326
TTGAAAAA | 0.0719
AAAGTCTT | -0.0882
ACTTGCAG | -0.188
CTTAACCC | -0.162
ATAAGCTA | 0.034
CGCCAGTC | -0.162
AAGCTTGA | -0.178
AAGTCAGA | -0.0488
CACGGTCA | 0.162

Sequence | PBM E-score
ACCTACTC | -0.0139
AGCCGGCC | -0.051
GCCCAAAC | -0.14
AGTATGTC | 0.171
GAAATATC | 0.168
AAAGAGAA | 0.0216
ACCAACAA | 0.085
CCCTTTCC | -0.14
AGGTAACT | 0.157
CCTCAAGA | -0.285
ATGGCCAG | -0.0265
AGCGAAAA | -0.101
TCAACGAA | 0.169
ACCAGCGG | -0.21
CCGTGATC | 0.212
ACCTTGCA | -0.128
CTTGTTTA | -0.0487
ACTTTCCC | -0.208
AACGCGGT | -0.136
CAATCTTA | 0.026
GTATGCCA | -0.108
AGAGGATC | 0.0124
TCCTGAGA | -0.059
CCCAAAAA | 0.0725
TAATCGTA | 0.194

Sequence | PBM E-score
ACCTAATG | -0.11
CCGCCTAC | -0.0547
GTCCACAA | -0.0942
GCACACAC | 0.0193
CCAAGAAC | -0.145
AGTTCAAT | -0.14
AAGTAATA | -0.0813
TTAGCTAA | 0.098
ACTACAAA | 0.167
ATGTCGAG | 0.0824
GGTCGAGA | -0.161
ACGATCCG | -0.0878
ATTGCGTG | -0.126
CGGTCCGC | -0.222
ACCACAAG | -0.161
AACTGACT | -0.157
CACCTACA | 0.0954
ATTAGATC | -0.00144
GCAAGCTA | -0.138
ATCGGATG | -0.0389
GCGTACAC | 0.0451
CTTGCAGC | -0.174

A section from the list above:
Sequence | PBM E-score
ATGTCGAG | 0.0824
GGTCGAGA | -0.161
ACGATCCG | -0.0878
